From publication PMC9713718
Results are given in words; binding and its absence hold for the method and conditions named. For some of these results: Binding seen in cells or lysates may run through a third protein. Some binding calls cover weakened binding; strength is not graded here. For some of these results: Tags and fused reporters may be left off the sequences shown.

By UniProt entry, the sequences of proteins in these tests, tags left out. Where a name states a change or a piece, a line headed by the entry shows the natural chain unless it says otherwise.
UniProt P58801: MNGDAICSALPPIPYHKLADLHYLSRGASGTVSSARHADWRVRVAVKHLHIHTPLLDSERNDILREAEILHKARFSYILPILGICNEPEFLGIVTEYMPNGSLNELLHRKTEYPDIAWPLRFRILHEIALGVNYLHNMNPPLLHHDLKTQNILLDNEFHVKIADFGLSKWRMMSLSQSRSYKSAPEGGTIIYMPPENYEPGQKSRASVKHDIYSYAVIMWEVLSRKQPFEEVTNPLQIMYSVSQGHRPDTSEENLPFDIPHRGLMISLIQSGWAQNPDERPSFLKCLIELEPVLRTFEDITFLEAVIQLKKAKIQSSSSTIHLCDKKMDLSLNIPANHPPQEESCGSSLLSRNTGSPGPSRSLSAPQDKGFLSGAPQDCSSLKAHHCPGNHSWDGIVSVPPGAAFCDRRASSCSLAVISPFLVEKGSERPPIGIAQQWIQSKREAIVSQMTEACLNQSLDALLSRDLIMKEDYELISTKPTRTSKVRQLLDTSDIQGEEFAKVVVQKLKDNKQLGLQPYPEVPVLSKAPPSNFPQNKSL
UniProt Q96CV9: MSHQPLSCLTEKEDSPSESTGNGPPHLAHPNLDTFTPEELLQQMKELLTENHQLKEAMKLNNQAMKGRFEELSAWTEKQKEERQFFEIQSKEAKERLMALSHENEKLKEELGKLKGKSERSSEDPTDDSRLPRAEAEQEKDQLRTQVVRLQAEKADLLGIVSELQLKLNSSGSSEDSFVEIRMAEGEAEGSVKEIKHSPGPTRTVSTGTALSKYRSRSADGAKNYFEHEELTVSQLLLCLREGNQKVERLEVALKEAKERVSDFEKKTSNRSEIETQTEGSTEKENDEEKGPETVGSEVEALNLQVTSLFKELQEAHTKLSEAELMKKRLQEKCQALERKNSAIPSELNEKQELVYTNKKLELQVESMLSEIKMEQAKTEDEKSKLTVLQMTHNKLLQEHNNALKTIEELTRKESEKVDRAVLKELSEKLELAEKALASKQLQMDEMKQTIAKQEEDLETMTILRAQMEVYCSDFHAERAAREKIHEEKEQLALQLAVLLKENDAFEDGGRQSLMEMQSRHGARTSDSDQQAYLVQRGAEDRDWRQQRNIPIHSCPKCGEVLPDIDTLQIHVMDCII
UniProt Q9HC29: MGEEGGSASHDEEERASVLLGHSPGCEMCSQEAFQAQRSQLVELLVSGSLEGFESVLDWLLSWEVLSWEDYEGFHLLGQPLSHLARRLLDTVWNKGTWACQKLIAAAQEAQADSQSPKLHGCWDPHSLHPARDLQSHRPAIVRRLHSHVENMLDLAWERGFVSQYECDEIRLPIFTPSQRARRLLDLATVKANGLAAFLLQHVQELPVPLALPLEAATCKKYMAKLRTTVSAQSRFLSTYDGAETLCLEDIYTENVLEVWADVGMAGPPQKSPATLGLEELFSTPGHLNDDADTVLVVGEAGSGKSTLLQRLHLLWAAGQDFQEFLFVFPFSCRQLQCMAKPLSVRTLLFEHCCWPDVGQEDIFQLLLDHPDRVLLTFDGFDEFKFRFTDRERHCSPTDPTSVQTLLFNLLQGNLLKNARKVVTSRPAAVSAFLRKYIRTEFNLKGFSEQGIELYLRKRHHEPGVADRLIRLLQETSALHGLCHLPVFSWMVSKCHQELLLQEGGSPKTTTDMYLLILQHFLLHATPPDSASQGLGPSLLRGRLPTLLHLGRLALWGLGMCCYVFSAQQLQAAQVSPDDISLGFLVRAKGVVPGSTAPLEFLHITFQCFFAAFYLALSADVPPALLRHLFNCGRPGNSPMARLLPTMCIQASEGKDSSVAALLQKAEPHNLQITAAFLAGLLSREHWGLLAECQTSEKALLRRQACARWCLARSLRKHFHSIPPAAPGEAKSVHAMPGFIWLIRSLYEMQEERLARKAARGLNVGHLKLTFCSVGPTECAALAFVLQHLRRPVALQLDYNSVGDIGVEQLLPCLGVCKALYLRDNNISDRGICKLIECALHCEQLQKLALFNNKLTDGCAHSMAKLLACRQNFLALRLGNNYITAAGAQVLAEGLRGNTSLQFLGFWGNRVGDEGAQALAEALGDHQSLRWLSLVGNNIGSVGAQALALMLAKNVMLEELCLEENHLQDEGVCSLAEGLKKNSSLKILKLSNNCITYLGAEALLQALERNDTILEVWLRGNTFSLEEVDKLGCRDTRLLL
UniProt Q676U5: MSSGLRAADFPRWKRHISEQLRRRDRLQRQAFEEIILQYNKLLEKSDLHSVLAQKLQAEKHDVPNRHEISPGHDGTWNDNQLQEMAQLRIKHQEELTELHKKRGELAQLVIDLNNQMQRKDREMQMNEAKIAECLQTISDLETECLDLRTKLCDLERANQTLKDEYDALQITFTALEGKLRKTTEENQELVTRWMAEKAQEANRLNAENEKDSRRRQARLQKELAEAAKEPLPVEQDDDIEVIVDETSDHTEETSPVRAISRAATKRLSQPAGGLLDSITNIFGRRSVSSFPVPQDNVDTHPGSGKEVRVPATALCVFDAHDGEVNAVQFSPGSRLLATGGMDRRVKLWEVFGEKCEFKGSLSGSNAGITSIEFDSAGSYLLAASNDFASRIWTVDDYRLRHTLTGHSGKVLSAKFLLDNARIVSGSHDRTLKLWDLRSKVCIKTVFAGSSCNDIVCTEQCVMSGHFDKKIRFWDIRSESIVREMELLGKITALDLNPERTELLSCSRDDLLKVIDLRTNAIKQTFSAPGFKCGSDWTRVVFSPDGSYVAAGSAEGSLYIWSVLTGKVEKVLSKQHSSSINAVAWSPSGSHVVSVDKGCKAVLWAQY

Legend:
[1] = molecular target: GFP-RIPK2 (UniProt O43353); test: co-IP; HEK293T cells transiently transfected with tagged proteins; NP-40 lysis buffer, antibody 2 h at 4°C, protein G Dynabeads, washed with ice-cold PBS; Western blot; for p62 with NOD1, NOD2 or RIPK2 also with and without co-expressed IRGM
[2] = molecular target: T1, Flag-IRGM, stably expressed in HT-29 cells (UniProt A1A4Y4)
T1 sequence: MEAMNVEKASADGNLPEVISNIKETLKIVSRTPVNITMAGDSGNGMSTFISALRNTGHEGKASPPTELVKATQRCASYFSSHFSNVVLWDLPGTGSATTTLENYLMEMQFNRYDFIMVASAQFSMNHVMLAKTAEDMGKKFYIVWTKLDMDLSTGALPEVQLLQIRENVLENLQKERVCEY

[3] = molecular target: T2, IRGM, endogenous in THP-1 cells (human (endogenous in THP-1)) (UniProt A1A4Y4); test: co-IP; endogenous proteins, THP-1 cell lysates, untreated or treated with iE-DAP (40 μg/ml, 6 h) or MDP (40 μg/ml, 6 h); IP with IRGM antibody or isotype control IgG
T2 sequence: T1 sequence

[4] = molecular target: T3, IRGM, overexpressed in HEK293T cells (tag not stated for the experiment) (UniProt A1A4Y4); test: co-IP; HEK293T cells transiently transfected with tagged proteins; NP-40 lysis buffer, antibody 2 h at 4°C, protein G Dynabeads, washed with ice-cold PBS; Western blot; for p62 with NOD1, NOD2 or RIPK2 also with and without co-expressed IRGM
T3 sequence: T1 sequence

[5] = molecular target: RIPK2, endogenous in mouse BMDMs and mouse colon (mouse (endogenous in BMDMs and colon)) (UniProt P58801); test: soluble-insoluble fractionation with Western blot; endogenous proteins; cells or tissue lysed in 1% Triton X-100 buffer (150 mM NaCl, 50 mM Tris pH 7.5), 17,000 g, pellet resuspended in 1% SDS; oligomers seen in the insoluble fraction; cells infected with S. flexneri (also other bacteria, iE-DAP or MDP; RIPK2 knock-down or knock-out, Irgm1 knock-out, GSK583 as treatments)
[6] = molecular target: GST-RIPK2 (UniProt O43353); test: pull-down; GST fusion purified on Glutathione Sepharose beads incubated with [35S]-labelled in vitro translated Myc-tagged protein in NETN-E buffer (50 mM Tris pH 8.0, 100 mM NaCl, 6 mM EDTA, 0.5% NP-40, 1 mM DTT), 2 h at 4°C; autoradiography; only the target purified

In the case of “Flag-OPTINEURIN (from UniProt Q96CV9 1-577)”, the binding [1] is reported as “no binding”.

For “NOD2, endogenous in HT-29 cells (from UniProt Q9HC29 1-1040)”, the binding [2] was “binds”.

With “NOD2, endogenous in THP-1 cells (from UniProt Q9HC29 1-1040)” the binding [3] was “binds”.

In the case of “NOD2, overexpressed in HEK293T cells (Appendix Fig S3B) (from UniProt Q9HC29 1-1040)”, the binding [4] is reported as “binds”.

With “RIPK2, endogenous in mouse BMDMs and mouse colon (from UniProt P58801 1-539)” the binding [5] was “binds”.

With “myc-ATG16L1, in vitro translated (from UniProt Q676U5 1-607)” the binding [6] was “binds”.

With “myc-BECLIN1, in vitro translated (from UniProt Q14457 1-450)” the binding [6] was “binds”.

B1: NOD1, endogenous in THP-1 cells (protein, UniProt Q9Y239 1-953)
chain: MEEQGHSEMEIIPSESHPHIQLLKSNRELLVTHIRNTQCLVDNLLKNDYFSAEDAEIVCACPTQPDKVRKILDLVQSKGEEVSEFFLYLLQQLADAYVDLRPWLLEIGFSPSLLTQSKVVVNTDPVSRYTQQLRHHLGRDSKFVLCYAQKEELLLEEIYMDTIMELVGFSNESLGSLNSLACLLDHTTGILNEQGETIFILGDAGVGKSMLLQRLQSLWATGRLDAGVKFFFHFRCRMFSCFKESDRLCLQDLLFKHYCYPERDPEEVFAFLLRFPHVALFTFDGLDELHSDLDLSRVPDSSCPWEPAHPLVLLANLLSGKLLKGASKLLTARTGIEVPRQFLRKKVLLRGFSPSHLRAYARRMFPERALQDRLLSQLEANPNLCSLCSVPLFCWIIFRCFQHFRAAFEGSPQLPDCTMTLTDVFLLVTEVHLNRMQPSSLVQRNTRSPVETLHAGRDTLCSLGQVAHRGMEKSLFVFTQEEVQASGLQERDMQLGFLRALPELGPGGDQQSYEFFHLTLQAFFTAFFLVLDDRVGTQELLRFFQEWMPPAGAATTSCYPPFLPFQCLQGSGPAREDLFKNKDHFQFTNLFLCGLLSKAKQKLLRHLVPAAALRRKRKALWAHLFSSLRGYLKSLPRVQVESFNQVQAMPTFIWMLRCIYETQSQKVGQLAARGICANYLKLTYCNACSADCSALSFVLHHFPKRLALDLDNNNLNDYGVRELQPCFSRLTVLRLSVNQITDGGVKVLSEELTKYKIVTYLGLYNNQITDVGARYVTKILDECKGLTHLKLGKNKITSEGGKYLALAVKNSKSISEVGMWGNQVGDEGAKAFAEALRNHPSLTTLSLASNGISTEGGKSLARALQQNTSLEILWLTQNELNDEVAESLAEMLKVNQTLKHLWLIQNQITAKGTAQLADALQSNTGITEICLNGNLIKPEEAKVYEDEKRIICF
With B1 the binding [3] was “binds”.

B2: NOD1, endogenous in HT-29 cells (protein, UniProt Q9Y239 1-953)
chain: B1 chain
With B2 the binding [2] was “binds”.

B3: GFP-NOD1^CARD (domain or fragment, UniProt Q9Y239 15-105)
chain: ESHPHIQLLKSNRELLVTHIRNTQCLVDNLLKNDYFSAEDAEIVCACPTQPDKVRKILDLVQSKGEEVSEFFLYLLQQLADAYVDLRPWLL
With B3 the binding [4] was “binds”.

B4: GFP-tagged NACHT domain of NOD1 (domain or fragment, UniProt Q9Y239 196-531)
chain: ETIFILGDAGVGKSMLLQRLQSLWATGRLDAGVKFFFHFRCRMFSCFKESDRLCLQDLLFKHYCYPERDPEEVFAFLLRFPHVALFTFDGLDELHSDLDLSRVPDSSCPWEPAHPLVLLANLLSGKLLKGASKLLTARTGIEVPRQFLRKKVLLRGFSPSHLRAYARRMFPERALQDRLLSQLEANPNLCSLCSVPLFCWIIFRCFQHFRAAFEGSPQLPDCTMTLTDVFLLVTEVHLNRMQPSSLVQRNTRSPVETLHAGRDTLCSLGQVAHRGMEKSLFVFTQEEVQASGLQERDMQLGFLRALPELGPGGDQQSYEFFHLTLQAFFTAFFLVL
B4 was tested, and the binding [4] was “binds”.

B5: GFP-NOD1 (protein, UniProt Q9Y239 1-953)
chain: B1 chain
With B5 the binding [4] was “binds”.

B6: Flag-NDP52 (protein, UniProt Q13137 1-446)
chain: MEETIKDPPTSAVLLDHCHFSQVIFNSVEKFYIPGGDVTCHYTFTQHFIPRRKDWIGIFRVGWKTTREYYTFMWVTLPIDLNNKSAKQQEVQFKAYYLPKDDEYYQFCYVDEDGVVRGASIPFQFRPENEEDILVVTTQGEVEEIEQHNKELCKENQELKDSCISLQKQNSDMQAELQKKQEELETLQSINKKLELKVKEQKDYWETELLQLKEQNQKMSSENEKMGIRVDQLQAQLSTQEKEMEKLVQGDQDKTEQLEQLKKENDHLFLSLTEQRKDQKKLEQTVEQMKQNETTAMKKQQELMDENFDLSKRLSENEIICNALQRQKERLEGENDLLKRENSRLLSYMGLDFNSLPYQVPTSDEGGARQNPGLAYGNPYSGIQESSSPSPLSIKKCPICKADDICDHTLEQQQMQPLCFNCPICDKIFPATEKQIFEDHVFCHSL
In the case of B6, the binding [1] is reported as “no binding”.
